Measurements as given in US20240108662A1, “ENGINEERED CELLS FUNCTIONALIZED WITH IMMUNE CHECKPOINT MOLECULES AND USES THEREOF” (The University of North Carolina at Chapel Hill, priority 2020, published 2024).

B1: Q925H6 (protein, UniProt Q925H6 1-87, looked up)
chain: MSHYSSYYGGLGYGYGSFGGPGCGCNSIRRLVGFGSGYGGFGYGSGFGGFGYGSGYGGYGYGSGFRGYGCGCRRPSCCGGYGFSSFY
modifications: full-length
B2: Q99JY4 (protein, UniProt Q99JY4 1-376, looked up)
chain: MEGEEKPAQEADVEPVVTAGTSEAVPRVLAGDPQNISDVDAFNLLLEMKLKRRRERPNLPRTVTQLVAEDGSRVYVVGTAHFSDDSKRDVVKTIREVQPDVVVVELCQYRVSMLKMDERTLLREAKEVSLEKLQQAVRQNGLMSGLMQMLLLKVSAHITEQLGMAPGGEFREAFKEASKVPFCKFHLGDRPIPVTFKRAIAALSFWQKVKLAWGLCFLSDPISKDDVERCKQKDLLEQMMAEMIGEFPDLHRTIVSERDVYLTYMLRQAARRLELPRASDAEPRKCVPSVVVGVVGMGHVPGIEKNWSTDLNIQEIMTVPPPSISGRVSRVAVKAAFFGLLGYSLYWMGRRTLNLVLSLPAAQFCLQRVSEARPGR
modifications: full-length
B3: Q8VHE0 (protein, UniProt Q8VHE0 1-760, looked up)
chain: MAGQQFQYDDSGNTFFYFLTSFVGLIVIPATYYLWPRDQNAEQIRLKNIRKVYGRCMWYRLRLLKPQPNIIPTVKKIVLLAGWALFLFLAYKVSKTDREYQEYNPYEVLNLDPGATVAEIKKQYRLLSLKYHPDKGGDEVMFMRIAKAYAALTDEESRKNWEEFGNPDGPQATSFGIALPAWIVDQKNSILVLLVYGLAFMVILPVVVGSWWYRSIRYSGDQILIRTTQIYTYFVYKTRNMDMKRLIMVLAGASEFDPQYNKDSTSRPTDNILIPQLIREIGSINLKKNEPPLTCPYSLKARVLLLSHLARMKIPETLEEDQQFMLKKCPALLQEMVNVICQLIIMARSREEREFRAPTLASLENCMKLSQMAVQGLQQFKSPLLQLPHIEEDNLRRVSNHKKYKIKTIQDLVSLKESDRHSLLHFLEDEKYEEVMAVLGSFPYVTMDIKSQVLDDEDSNNITVGSLVTVLVKLTRQTMAEVFEKEQSICAAEEQPTEDGQSDANKIKAKGGWQQKNKGPKKMPKSKKKKPLKKKPTTVPLPQAKQQKQKQANGVVGSEAAIKEEEDDISDKGSDSEEEETNRDSQSEKEDGSDRESDREQDEKQSKDDEAEWQELQQSIQRKERALLETKSKITHPVYSLYFPEEKQEWWWLYIADRKEQTLISMPYHVCTLKDTEEVELKFPAPGKPGNYQYTVFLRSDSYMGLDQIKPLKLEVHEAKPVPENHPQWDTAIEGDEDQEDSEGFEDSFEEEEEEEEGGD
modifications: full-length
B4: Q8CHJ2 (protein, UniProt Q8CHJ2 1-290, looked up)
chain: MASLNVSLCFFFATCAICEVARRASKALLPAGTYASFARGAVGAAQLAACCLEMRVLVELGPWAGGFGPDLLLTLVFLLFLVHGVTFDGASANPTVALQEFLMVEASLPNTLLKLSAQVLGAQAACALTQRCWAWELSELHLLQSLMAAHCSSTLRTSVLQGMLVEGACTFFFHLSLLHLQHSLLVYRVPALALLVTLMAYTAGPYTSAFFNPALAASVTFHCPGNTLLEYAHVYCLGPVAGMILAVLLHQGHLPRLFQRNLFYRQKSKYRTPRGKLSPGSVDAKMHKGE
modifications: full-length
B5: O09110 (protein, UniProt O09110 1-347, looked up)
chain: MESPAASPPASLPQTKGKSKRKKDLRISCVSKPPVSNPTPPRNLDSRTFITIGDRNFEVEADDLVTISELGRGAYGVVEKVRHAQSGTIMAVKRIRATVNTQEQKRLLMDLDINMRTVDCFYTVTFYGALFREGDVWICMELMDTSLDKFYRKVLEKNMKIPEDILGEIAVSIVRALEHLHSKLSVIHRDVKPSNVLINKEGHVKMCDFGISGYLVDSVAKTMDAGCKPYMAPERINPELNQKGYNVKSDVWSLGITMIEMAILRFPYESWGTPFQQLKQVVEEPSPQLPADQFSPEFVDFTSQCLRKNPAERMSYLELMEHPFFTLHKTKKTDIAAFVKEILGEDS
modifications: full-length
B6: Q9DBY1 (protein, UniProt Q9DBY1 1-612, looked up)
chain: MFRTAVMMAASLALTGAVVAHAYYLKHQFYPTVVYLTKSSPSMAVLYIQAFVLVFLLGKVMGKVFFGQLRAAEMEHLLERSWYAVTETCLAFTVFRDDFSPRFVALFTLLLFLKCFHWLAEDRVDFMERSPNISWLFHCRIVSLMFLLGILDFLFVSHAYHSILTRGASVQLVFGFEYAILMTMVLTIFIKYVLHSVDLQSENPWDNKAVYMLYTELFTGFIKVLLYMAFMTIMIKVHTFPLFAIRPMYLAMRQFKKAVTDAIMSRRAIRNMNTLYPDATPEELQAVDNVCIICREEMVTGAKRLPCNHIFHTSCLRSWFQRQQTCPTCRMDVLRASLPAQSPPPPEPADQGPPPAPHPQPLLPQPPNFPQGLLPPFPPGMFPLWPPMGPFPPVPPPPSSGEAAAPPPTSTAVSRPSGAATTTAAGTSTSAPAPGSVPGPEAGPAPGFPFPPPWMGMPLPPPFAFPPMPVPPAGFAGLTPEELRALEGHERQHLEARLQSLRNIHTLLDAAMLQINQYLTVLASLGPPRPATSVNPTEETASTVVSAAPSTSAPSSEAPTPSPGASPPIPEAEKPPAPESVGIVEELPEDGEPDAAELRRRRLQKLESPVAH
modifications: full-length
B7: Q99P58 (protein, UniProt Q99P58 1-218, looked up)
chain: MTDGDYDYLIKLLALGDSGVGKTTFLYRYTDNKFNPKFITTVGIDFREKRVVYDTQGADGASGKAFKVHLQLWDTAGQERFRSLTTAFFRDAMGFLLMFDLTSQQSFLNVRNWMSQLQANAYCENPDIVLIGNKADLPDQREVNERQARELAEKYGIPYFETSAATGQNVEKSVETLLDLIMKRMEKCVEKTQVPDTVNGGNSGKLDGEKPAEKKCAC
modifications: full-length
B8: Q6AW69 (protein, UniProt Q6AW69 1-1297, looked up)
chain: MELYFGEYQHVQQEYGVHLRLASGDTPKPRNSQPSKAGSYGVSIRVQGIDGHPYIVLNNTERCLAGTPFPENAPSFPSSVINNLSLHPSNGTVLKENTPEELQLPENPYLQTSPLRGQKQFSLHEGRNGVLERKDGPTKLPHVLNFQRHPELLQPYDPEKNEVNAKKHHPPESPWLRNATEDGTNCKKSRNCFPKSYGSQPNSPTSEDLAKTNMTAIRLCSSVVIEDPQKQTSVCVNVQRCAKEGVGEETLSPRRKSPTAPSPQAYSETKKNRPDVLPFRRQDSAGPILDGARSRRSSSSSTTPTSATSLYKFLLDDQECAIHADSVNRHENRRYIPFLPGTGRDIDTCSIPGVDQLIEKFDQKPGLQRRGRSGKRNRINPDDRKRSRSVDSAFPFGLQGNTEYLTEFSRNLGKSSEHLLRPSQVFPQRSVAQEHRGKHSPSSPPAKLQGAQGAHPKPPLQNKDGKVLNKGRQESTGACAPSLPAPNKKEEEIKIATATLMLQNRAVAATSDSGAKKISVKTFPSDSSTQATPDLLKGQQELTQQTNEETAKQILYNYLKEGGTDNEDATKRKVNLVFEKIQTLKSRAAGSAQGSNQAPNSPSEGNSLLDQKNKLILEVSELQQQLQLEMKNQQNIKEERERMREDLEELRVRHQSQVEETATLQRRLEESEGELRKSLEELFQVKMEREQHQTEIRDLQDQLSEMHDELDSTKRSEDREKGALIEELLQAKQDLQDLLIAKEEQEDLLRKRERELTALKGALKEEVSSHDQEMDKLKEQYDAELQALRESVEEATKNVEVLASRSNSSEQSQAEADLREKVLKEENEKLQGRIAELERRAAQLQRQMEDVKGDEAQAKETLRKCESEVQQLEEALVHARKEEKEATCARRALEKELEQARRELSQVSQEQKELLEKLRDEAEQKEQLRKLKNEMESERWHLDKTIEKLQKEMADIAEASRTSSLELQKQLGEYKEKNRRELAEMQTQLKEKCLEVEKARLAASKMQDELRLKEEELQDYQRAEEEALTKRQLLEQSLKDLEYELEAKSHLKDDRSRLIKQMEDKVSQLEIELEEERTNADLLSERITWSREQMEQMRSELLQEKAAKQDLECDKISLERQNKDLKSRIIHLEGSYRSSKEGLVVQMEARIAELEDRLENEERDRANLQLSNRRLERKVKELVMQVDDEHLSLTDQKDQLSLRLKAMKRQVEEAEEEIDRLESSKKKLQRELEEQMGVNEQLQGQLNSLKKGLRLKTLSSKVLDDSDDDDLSSDAGSLYEAPLSYAFPKDSTIASQI
modifications: full-length
B9: P21981 (protein, UniProt P21981 1-686, looked up)
chain: MAEELLLERCDLEIQANGRDHHTADLCQEKLVLRRGQRFRLTLYFEGRGYEASVDSLTFGAVTGPDPSEEAGTKARFSLSDNVEEGSWSASVLDQQDNVLSLQLCTPANAPIGLYRLSLEASTGYQGSSFVLGHFILLYNAWCPADDVYLDSEEERREYVLTQQGFIYQGSVKFIKSVPWNFGQFEDGILDTCLMLLDMNPKFLKNRSRDCSRRSSPIYVGRVVSAMVNCNDDQGVLLGRWDNNYGDGISPMAWIGSVDILRRWKEHGCQQVKYGQCWVFAAVACTVLRCLGIPTRVVTNYNSAHDQNSNLLIEYFRNEFGELESNKSEMIWNFHCWVESWMTRPDLQPGYEGWQAIDPTPQEKSEGTYCCGPVSVRAIKEGDLSTKYDAPFVFAEVNADVVDWIRQEDGSVLKSINRSLVVGQKISTKSVGRDDREDITHTYKYPEGSPEEREVFTKANHLNKLAEKEETGVAMRIRVGDSMSMGNDFDVFAHIGNDTSETRECRLLLCARTVSYNGVLGPECGTEDINLTLDPYSENSIPLRILYEKYSGCLTESNLIKVRGLLIEPAANSYLLAERDLYLENPEIKIRVLGEPKQNRKLVAEVSLKNPLSDPLYDCIFTVEGAGLTKEQKSVEVSDPVPAGDLVKARVDLFPTDIGLHKLVVNFQCDKLKSVKGYRNVIIGPA
modifications: full-length

Experiment: Proteomic analysis of native murine pancreata and decelled pancreatic ECM (Table 1)
Design: species or system mouse
Conditions: Native pancreas tissue

Molecule | Mean of log2(intensities) [a.u.]
B1 | 21.47
B2 | 24.61
B3 | 27.03
B4 | 26.86
B5 | 21.52
B6 | 24.43
B7 | 24.23

Same assay, conditions: Pancreatic ECM (decelled)

Molecule | Mean of log2(intensities) [a.u.]
B1 | 23.81
B2 | 27.04
B3 | 29.38
B4 | 29.25
B5 | 23.94
B6 | 27.04
B7 | 26.89

Same assay, conditions: abundance of the listed protein in decelled pancreatic ECM

Molecule | Pancreatic ECM: Mean of log2(intensities) [a.u.]
B8 | 24.78
B9 | 30.23

Same assay, conditions: abundance of the listed protein in native murine pancreas tissue

Molecule | Native pancreas tissue: Mean of log2(intensities) [a.u.]
B8 | 22.08
B9 | 26.99
